# Data taken from patent publication US6063587A, “Water-soluble tetrazolium salt compounds” (Dojindo Laboratories Co., Ltd., priority 1996, dated 2000).
# Assay: Measurement of NADH concentration (absorbance calibration curve)
# Conditions: 0.1 mM compound, 5 μM 1-methoxy-5-methylphenazinium methosulfate, 5 minutes
smiles,measurement,setting,value
O=[N+]([O-])c1ccc(-n2nc(-c3ccc(S(=O)(=O)O)cc3S(=O)(=O)[O-])n[n+]2-c2ccc(I)cc2)c([N+](=O)[O-])c1 [Compound b],calibration curve between NADH concentration and absorbance,"50 mM Tris pH 8.0, 0-50 μl of 5 mM NADH, room temperature",linear calibration curve between NADH concentration and absorbance starting from the origin
same,detection sensitivity for NADH (Compound a versus Compound b),"50 mM Tris pH 8.0, room temperature",almost the same detection sensitivity
